In patent publication US20110039845A1, “2-AMINOQUINAZOLINE DERIVATIVE” (KYOWA HAKKO KIRIN CO., LTD., priority 2008, published 2011):
Some results were stated once for a whole list of compounds, not compound by compound.

Chains of the proteins cited; added tags and fusions are not shown. Residues count along the entry.
UniProt Q02763, 771-1124: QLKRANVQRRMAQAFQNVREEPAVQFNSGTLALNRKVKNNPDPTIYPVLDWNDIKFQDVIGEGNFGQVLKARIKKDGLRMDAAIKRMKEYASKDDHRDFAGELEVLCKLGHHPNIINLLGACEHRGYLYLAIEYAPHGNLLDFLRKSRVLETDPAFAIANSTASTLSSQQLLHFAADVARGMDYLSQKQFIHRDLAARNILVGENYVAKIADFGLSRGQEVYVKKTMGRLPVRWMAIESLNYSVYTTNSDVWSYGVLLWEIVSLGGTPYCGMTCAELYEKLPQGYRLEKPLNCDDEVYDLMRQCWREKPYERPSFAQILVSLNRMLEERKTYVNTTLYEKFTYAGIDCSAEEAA
UniProt P35968, 790-1356 limits assumed: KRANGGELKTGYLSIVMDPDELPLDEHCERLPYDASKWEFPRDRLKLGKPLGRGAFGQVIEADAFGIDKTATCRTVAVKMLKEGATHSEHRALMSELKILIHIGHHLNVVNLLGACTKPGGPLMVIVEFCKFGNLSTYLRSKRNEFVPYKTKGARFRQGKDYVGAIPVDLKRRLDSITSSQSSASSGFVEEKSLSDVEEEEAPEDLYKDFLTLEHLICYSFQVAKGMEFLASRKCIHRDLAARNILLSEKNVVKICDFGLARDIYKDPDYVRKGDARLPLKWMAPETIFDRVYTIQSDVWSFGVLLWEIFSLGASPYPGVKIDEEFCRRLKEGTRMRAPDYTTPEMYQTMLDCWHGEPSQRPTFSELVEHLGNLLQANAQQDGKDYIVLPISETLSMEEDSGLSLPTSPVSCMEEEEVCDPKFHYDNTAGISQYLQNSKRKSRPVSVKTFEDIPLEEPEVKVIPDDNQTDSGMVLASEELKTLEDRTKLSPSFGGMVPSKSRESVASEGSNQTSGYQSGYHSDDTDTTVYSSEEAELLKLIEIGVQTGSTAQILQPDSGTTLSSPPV

How the values were obtained:
human Tie-2 = molecular target: T1, human Tie-2 (Homo sapiens, UniProt Q02763); test: Tie-2 enzyme inhibitory activity (DELFIA time-resolved fluorescence kinase assay); type: biochemical; settings: functional domain of human Tie-2, 50 μmol/L ATP, 30° C. 40 minutes
T1 construct: Functional domain of human Tie-2 (771-1124 end amino acid); purchased Carna Biosicence Inc. 08-285

human KDR = molecular target: T2, human KDR (Homo sapiens, UniProt P35968); test: KDR enzyme inhibitory activity (DELFIA time-resolved fluorescence kinase assay); type: biochemical; settings: selectivity for Tie-2 kinase over KDR
T2 construct: functional domain of human KDR (amino acid 790-end); purchased Upstate Inc. 14-630

SMILES | IC50 (human Tie-2) | ratio of KDR IC50/Tie-2 IC50 (human KDR)
Cc1ccc(NC(=O)c2cccc(C(F)(F)F)c2)cc1-c1cc2cnc(N)nc2c(-c2ccccn2)c1O [Compound 4, 2-Amino-7-hydroxy-6-[2-methyl-5-(3-trifluoromethylbenzamide)phenyl]-8-(2-pyridyl)quinazoline] | ≤ 0.02 µM | ≥ 20
COc1c(-c2cc(C(=O)Nc3cccc(C(F)(F)F)c3)ccc2C)cc2cnc(N)nc2c1-c1ccc(F)cc1 [Compound 5, 2-Amino-8-(4-fluorophenyl)-7-methoxy-6-[2-methyl-5-N-(3-trifluoromethylphenyl)carbamoylphenyl]quinazoline] | ≤ 0.02 µM | 
COc1c(-c2cc(C(=O)Nc3cccc(C(F)(F)F)c3)ccc2C)cc2cnc(N)nc2c1-c1ccccn1 [Compound 6, 2-Amino-7-methoxy-6-[2-methyl-5-N-(3-trifluoromethylphenyl)carbamoylphenyl]-8-(2-pyridyl)quinazoline] | ≤ 0.02 µM | 
Cc1ccc(C(=O)Nc2cccc(C(F)(F)F)c2)cc1-c1cc2cnc(N)nc2c(-c2ccncc2)c1O [Compound 12, 2-Amino-7-hydroxy-6-[2-methyl-5-N-(3-trifluoromethylphenyl)carbamoylphenyl]-8-(4-pyridyl)quinazoline] | ≤ 0.02 µM | ≥ 20
COc1c(-c2cc(NC(=O)c3cc(C(F)(F)F)ccc3N(C)CCCN(C)C)ccc2C)cc2cnc(N)nc2c1-c1ccncc1 [Compound 16, 2-Amino-6-(5-{2-[N-(3-dimethylaminopropyl)-N-methylamino]-5-trifluoromethylbenzamide}-2-methylphenyl)-7-methoxy-8-(4-pyridyl)quinazoline] | ≤ 0.02 µM | ≥ 20
COc1c(-c2cc(C(=O)Nc3cccc(C(F)(F)F)c3)ccc2C)cc2cnc(N)nc2c1-c1ncccn1 [Compound 18, 2-Amino-7-methoxy-6-[2-methyl-5-N-(3-trifluoromethylphenyl)carbamoylphenyl]-8-(pyrimidin-2-yl)quinazoline] | ≤ 0.02 µM | ≥ 20
COc1c(-c2cc(NC(=O)c3cccc(C(F)(F)F)c3)ccc2C)cc2cnc(N)nc2c1-c1ccc(N)nc1 [Compound 32, 2-Amino-8-(2-aminopyridin-5-yl)-7-methoxy-6-[2-methyl-5-(3-trifluoromethylbenzamide)phenyl]quinazoline] | ≤ 0.02 µM | 
COc1c(-c2cc(NC(=O)c3cccc(C(F)(F)F)c3)ccc2C)cc2cnc(N)nc2c1-c1cnc(N)nc1 [Compound 33, 2-Amino-8-(2-aminopyrimidin-5-yl)-7-methoxy-6-[2-methyl-5-(3-trifluoromethylbenzamide)phenyl]quinazoline] | ≤ 0.02 µM | 
Cc1ccc(C(=O)Nc2cc(CN3CCN(C)CC3)cc(C(F)(F)F)c2)cc1-c1cc2cnc(N)nc2c(-c2ccccn2)c1O [Compound 54, 2-Amino-7-hydroxy-6-{2-methyl-5-N-[3-(4-methylpiperazin-1-yl)methyl-5-trifluoromethylphenyl]carbamoylphenyl}-8-(2-pyridyl)quinazoline] | ≤ 0.02 µM | ≥ 20
Cc1ccc(C(=O)Nc2ccc(CN3CCN(C)CC3)c(C(F)(F)F)c2)cc1-c1cc2cnc(N)nc2c(-c2ccccn2)c1O [Compound 59, 2-Amino-7-hydroxy-6-{2-methyl-5-N-[4-(4-methylpiperazin-1-yl)methyl-3-trifluoromethyl-phenyl]carbamoylphenyl}-8-(2-pyridyl)quinazoline] | ≤ 0.02 µM | ≥ 20
Cc1ccc(C(=O)Nc2cccc(C(F)(F)F)c2)cc1-c1cc2cnc(N)nc2c(-c2ccc(N3CCCC3)nc2)c1O [Compound 91, 2-Amino-7-hydroxy-6-[2-methyl-5-N-(3-trifluoromethylphenyl)carbamoylphenyl]-8-[2-(pyrrolidin-1-yl)pyridin-5-yl]quinazoline] | ≤ 0.02 µM | 
COc1c(-c2cc(C(=O)Nc3cccc(C(F)(F)F)c3)ccc2C)cc2cnc(N)nc2c1-c1ccc2ncccc2c1 [Compound 130, 2-Amino-7-methoxy-6-[2-methyl-5-N-(3-trifluoromethylphenyl)carbamoylphenyl]-8-(quinolin-6-yl)quinazoline] | ≤ 0.02 µM | 
Cc1ccc(NC(=O)c2cccc(C(F)(F)F)c2)cc1-c1cc2cnc(N)nc2c(-c2cnc(N3CCOCC3)nc2)c1O [Compound 137, 2-Amino-7-hydroxy-6-[2-methyl-5-(3-trifluoromethylbenzamide)phenyl]-8-(2-morpholinopyrimidin-5-yl)quinazoline] | ≤ 0.02 µM | 
COc1c(-c2cc(C(=O)Nc3cccc(C(F)(F)F)c3)ccc2C)cc2cnc(N)nc2c1-c1cc[n+]([O-])cc1 [Compound 171, 2-Amino-7-methoxy-6-[2-methyl-5-N-(3-trifluoromethylphenyl)carbamoylphenyl]-8-(pyridine-1-oxid-4-yl)quinazoline] | ≤ 0.02 µM | 
COc1c(-c2cc(C(=O)Nc3cccc(C(F)(F)F)c3)ccc2C)cc2cnc(N)nc2c1-c1noc(C)n1 [Compound 190, 2-Amino-7-methoxy-8-(5-methyl-1,2,4-oxadiazol-3-yl)-6-[2-methyl-5-N-(3-trifluoromethylphenyl)carbamoylphenyl]quinazoline] | ≤ 0.02 µM | 

The next lines start with the values.

IC50 (human Tie-2) | ratio of KDR IC50/Tie-2 IC50 (human KDR) | SMILES
≤ 0.02 µM | ≥ 20 | COc1c(-c2cc(C(=O)Nc3cccc(C(F)(F)F)c3)ccc2C)cc2cnc(N)nc2c1-c1cccnc1 [Compound 14, 2-Amino-7-methoxy-6-[2-methyl-5-N-(3-trifluoromethylphenyl)carbamoylphenyl]-8-(3-pyridyl)quinazoline]
≤ 0.02 µM |  | COc1c(-c2cc(C(=O)Nc3cccc(C(F)(F)F)c3)ccc2C)cc2cnc(N)nc2c1-c1cnn(C)c1 [Compound 19, 2-Amino-7-methoxy-8-(1-methyl-1H-pyrazol-4-yl)-6-[2-methyl-5-N-(3-trifluoromethylphenyl)carbamoylphenyl]quinazoline]
≤ 0.02 µM | ≥ 20 | COc1ncc(-c2c(OC)c(-c3cc(C(=O)Nc4cccc(C(F)(F)F)c4)ccc3C)cc3cnc(N)nc23)cn1 [Compound 22, 2-Amino-7-methoxy-8-(2-methoxypyrimidin-5-yl)-6-[2-methyl-5-N-(3-trifluoromethylphenyl)carbamoylphenyl]quinazoline]
≤ 0.02 µM | ≥ 20 | CNc1ncc2cc(-c3cc(C(=O)Nc4cccc(C(F)(F)F)c4)ccc3C)c(OC)c(-c3ccncc3)c2n1 [Compound 25, 7-Methoxy-2-methylamino-6-[2-methyl-5-N-(3-trifluoromethylphenyl)carbamoylphenyl]-8-(4-pyridyl)quinazoline]
≤ 0.02 µM | ≥ 20 | COc1c(-c2cc(C(=O)Nc3cccc(C(F)(F)F)c3)ccc2C)cc2cnc(N)nc2c1-c1ccc(NCCN2CCOCC2)nc1 [Compound 34, 2-Amino-7-methoxy-6-[2-methyl-5-N-(3-trifluoromethylphenyl)carbamoylphenyl]-8-{2-[2-(morpholino)ethylamino]pyridin-5-yl)quinazoline]
≤ 0.02 µM |  | COc1c(-c2cc(C(=O)Nc3cccc(C(F)(F)F)c3)ccc2C)cc2cnc(N)nc2c1-c1cnccn1 [Compound 36, 2-Amino-7-methoxy-6-[2-methyl-5-N-(3-trifluoromethylphenyl)carbamoylphenyl]-8-(pyrazin-2-yl)quinazoline]
≤ 0.02 µM | ≥ 20 | COc1c(-c2cc(C(=O)Nc3cccc(C(F)(F)F)c3)ccc2C)cc2cnc(N)nc2c1-c1ccc(N2CCOCC2)cc1 [Compound 46, 2-Amino-7-methoxy-6-[2-methyl-5-N-(3-trifluoromethylphenyl)carbamoylphenyl]-8-(4-morpholinophenyl)quinazoline]
≤ 0.02 µM | ≥ 20 | CNc1ncc2cc(-c3cc(C(=O)Nc4cccc(C(F)(F)F)c4)ccc3C)c(OC)c(-c3cnn(CCN4CCOCC4)c3)c2n1 [Compound 50, 7-Methoxy-2-methylamino-6-[2-methyl-5-N-(3-trifluoromethylphenyl)carbamoylphenyl]-8-[1-(2-morpholinoethyl)-1H-pyrazol-4-yl]quinazoline]
≤ 0.02 µM |  | COc1c(-c2cc(C(=O)Nc3cccc(C(F)(F)F)c3)ccc2C)cc2cnc(N)nc2c1-c1cnn(CCN2CCOCC2)c1 [Compound 51, 2-Amino-7-methoxy-6-[2-methyl-5-N-(3-trifluoromethylphenyl)carbamoylphenyl]-8-[1-(2-morpholinoethyl)-1H-pyrazol-4-yl]quinazoline]
≤ 0.02 µM |  | COc1c(-c2cc(C(=O)Nc3cccc(C(F)(F)F)c3)ccc2C)cc2cnc(N)nc2c1-c1ccnn1C [Compound 81, 2-Amino-7-methoxy-8-(1-methyl-1H-pyrazol-5-yl)-6-[2-methyl-5-N-(3-trifluoromethylphenyl)carbamoylphenyl]quinazoline]
≤ 0.02 µM |  | COc1c(-c2cc(C(=O)Nc3cccc(C(F)(F)F)c3)ccc2C)cc2cnc(N)nc2c1-c1ncco1 [Compound 82, 2-Amino-7-methoxy-6-[2-methyl-5-N-(3-trifluoromethylphenyl)carbamoylphenyl]-8-(oxazol-2-yl)quinazoline]
≤ 0.02 µM |  | COc1c(-c2cc(C(=O)Nc3cccc(C(F)(F)F)c3)ccc2C)cc2cnc(N)nc2c1-c1nccs1 [Compound 85, 2-Amino-7-methoxy-6-[2-methyl-5-N-(3-trifluoromethylphenyl)carbamoylphenyl]-8-(thiazol-2-yl)quinazoline]
≤ 0.02 µM |  | COc1c(-c2cc(C(=O)Nc3cccc(C(F)(F)F)c3)ccc2C)cc2cnc(N)nc2c1-c1ccc(OCCN2CCOCC2)nc1 [Compound 109, 2-Amino-7-methoxy-6-[2-methyl-5-N-(3-trifluoromethylphenyl)carbamoylphenyl]-8-{2-[2-(morpholino)ethyloxy]pyridin-5-yl}quinazoline]
≤ 0.02 µM |  | COc1c(-c2cc(C(=O)Nc3cccc(C(F)(F)F)c3)ccc2C)cc2cnc(N)nc2c1-c1cnc(N2CCN(C)CC2)nc1 [Compound 117, 2-Amino-7-methoxy-8-[2-(4-methylpiperazin-1-yl)pyrimidin-5-yl]-6-[2-methyl-5-N-(3-trifluoromethylphenyl)carbamoylphenyl]quinazoline]
